Article doi:10.1101/2022.02.11.480038
Results are given in words; binding and its absence hold for the method and conditions named. In cells and extracts the contact can be indirect. Some results given as binding are weak or reduced against the parent protein; the word gives no strength.

The chains behind the UniProt entries cited, without tags or fusion partners. Where a name states a change or a piece, a line headed by the entry shows the natural chain unless it says otherwise. A line that says so, or that is headed by a name, gives the form on record, which may keep a tag or linker.
UniProt Q9Y6I9: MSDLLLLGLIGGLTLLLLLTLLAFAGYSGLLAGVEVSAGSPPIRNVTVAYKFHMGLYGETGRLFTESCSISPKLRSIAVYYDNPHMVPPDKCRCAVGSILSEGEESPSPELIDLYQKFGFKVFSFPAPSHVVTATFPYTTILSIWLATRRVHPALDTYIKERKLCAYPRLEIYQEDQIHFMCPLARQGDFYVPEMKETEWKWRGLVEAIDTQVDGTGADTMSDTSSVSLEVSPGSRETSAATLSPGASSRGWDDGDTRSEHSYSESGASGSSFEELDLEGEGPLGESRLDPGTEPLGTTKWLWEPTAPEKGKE
TEX264-FLAG core LIR mutant (LIR4A, FEEL/AAAA) (Q9Y6I9, form named): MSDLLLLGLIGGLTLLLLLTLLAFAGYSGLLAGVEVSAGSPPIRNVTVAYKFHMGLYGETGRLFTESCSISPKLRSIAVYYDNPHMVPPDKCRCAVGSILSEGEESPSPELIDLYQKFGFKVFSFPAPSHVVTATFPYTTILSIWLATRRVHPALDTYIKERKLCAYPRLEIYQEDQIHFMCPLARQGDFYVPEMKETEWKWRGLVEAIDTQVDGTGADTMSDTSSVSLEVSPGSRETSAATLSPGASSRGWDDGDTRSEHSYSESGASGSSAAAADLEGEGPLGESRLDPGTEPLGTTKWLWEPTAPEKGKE
UniProt O95166: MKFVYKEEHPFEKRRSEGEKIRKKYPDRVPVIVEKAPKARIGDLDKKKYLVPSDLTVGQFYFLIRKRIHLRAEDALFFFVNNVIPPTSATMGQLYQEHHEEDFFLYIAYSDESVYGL

Legend:
Experiment in all cases: co-IP
[1] = molecular target: FLAG-tagged TEX264 (TEX264-FLAG), wild type (human) (UniProt Q9Y6I9)
[2] = molecular target: TEX264^(S269D, S271D, S272D)-FLAG (human) (UniProt Q9Y6I9)
[3] = molecular target: TEX264^(S269E, S271E, S272E)-FLAG (human) (UniProt Q9Y6I9)
FLAG-GABARAP, wild type = FLAG-GABARAP, wild type (UniProt O95166)
[4] = molecular target: TEX264-FLAG core LIR mutant (LIR4A, FEEL/AAAA) (human) (UniProt Q9Y6I9)
[5] = molecular target: TEX264^S266A-FLAG (human) (UniProt Q9Y6I9)
[6] = molecular target: TEX264^S269A-FLAG (human) (UniProt Q9Y6I9)
[7] = molecular target: TEX264^S271A-FLAG (human) (UniProt Q9Y6I9)
[8] = molecular target: TEX264^S272A-FLAG (human) (UniProt Q9Y6I9)

Row | Substance | binding [1] | binding [2] | binding [3] | binding (FLAG-GABARAP, wild type) | binding [4] | binding [5] | binding [6] | binding [7] | binding [8]
1 | LC3A (in HEK293T lysate) (from UniProt Q9H492 1-121) | binds | binds | binds |  |  |  |  |  | 
2 | TEX264 co-precipitated with FLAG-GABARAP (HEK293T lysate) (from UniProt Q9Y6I9 1-313) |  |  |  | binds |  |  |  |  | 
3 | GABARAP (in HEK293T lysate) (from UniProt O95166 1-117) | binds | binds | binds |  | no binding | binds | binds weakly | no binding | no binding
